Laboratory results reported in PubChem BioAssay AID1487 (National Center for Advancing Translational Sciences (NCATS), 2009).
The other results are listed elsewhere or left out. Further columns of the screen follow, without active or inactive calls. Compounds called inactive in the main read-out are mostly missing here. Potencies come from curve fits of mixed quality, noted in brackets.

Assay: qHTS Assay for Modulators of Lamin A Splicing
Settings: HeLa LMNA splicing GFP/RFP minigene ratio, 48 h
How it was run: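 Read-out is the ratio of GFP to DsRed2 object intensity, acquired by 488 nm laser-scanning cytometry on HeLa lamin A-EGFP minigene reporter cells. Compound incubation 48 hrs at 37 °C in Opti-MEM with 2% FBS; DMSO 0.5% final.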

[1] = measured here: RFP viability control channel
[2] = measured here: GFP splicing reporter channel

In the case of `Brc1cc2c(cc1C1Nc3ccccc3C3C=CCC31)OCO2` (stereo unspecified), the AC50 [1] is reported as 35.5 µM [rising, single point].

For `CCN1C(=O)C(CC(=O)Nc2ccc(F)cc2)N(CCc2ccc(OC)cc2)C1=S` (stereo unspecified), the AC50 [1] was 3.55 µM [falling, partial curve, poor fit].

For `c1ccc(-n2nnnc2-c2cnc(-c3ccncc3)nc2-c2cccs2)cc1`, the AC50 [1] was 1.78 µM [rising, partial curve].

For `COc1cc(C)nc(Oc2ccc(OCCOc3ccccc3)nn2)n1`, the AC50 [2] was 3.16 µM [falling, partial curve] and the AC50 [1] was 2 µM [falling, partial curve].

With `COc1ccc(/C=C/C(=O)N(C)c2ccccc2C(=O)O)cc1` the AC50 [2] was 0.0141 µM [rising, full curve, poor fit] and the AC50 [1] was 3.98 µM [rising, partial curve, poor fit].

With `Cc1nc2sc(C(c3ccco3)N3CCN(C(c4ccccc4)c4ccccc4)CC3)c(O)n2n1` (stereo unspecified) the AC50 [2] was 35.5 µM [falling, single point] and the AC50 [1] was 11.2 µM [falling, single point].

With `Nc1nc2ccccc2n1/N=C/c1ccc([N+](=O)[O-])s1` the AC50 [2] was 35.5 µM [falling, single point].

For `Cc1c2cn[nH]c(=O)c2c(C)n1Cc1ccc(F)cc1`, the AC50 [1] was 35.5 µM [rising, single point].

For `Fc1ccc(NC(=S)NN2CCOCC2)cc1Cl`, the AC50 [2] was 20 µM [rising, partial curve, poor fit] and the AC50 [1] was 17.8 µM [rising, partial curve, poor fit].

For `COc1ccc(OC)c(NC(=O)c2cccc(S(=O)(=O)N(Cc3ccccc3)c3ccccc3OC)c2)c1`, the AC50 [1] was 14.1 µM [rising, single point].

With `CCC(=O)Nc1nnc(SCC(=O)NCCc2ccc(OC)c(OC)c2)s1` the AC50 [2] was 0.891 µM [rising, full curve, poor fit] and the AC50 [1] was 0.794 µM [rising, full curve, poor fit].

For `COC(=O)c1sccc1S(=O)(=O)N(CC(=O)Nc1cc(C)cc(C)c1)c1ccc(Cl)cc1`, the AC50 [1] was 11.2 µM [rising, partial curve, poor fit].

In the case of `CC(C)C(=O)Nc1cccc(C(=O)Nc2nncs2)c1`, the AC50 [1] is reported as 0.00794 µM [falling, full curve, poor fit].

In the case of `CCCCc1ccc(NC(=S)NCc2cccnc2)cc1`, the AC50 [1] is reported as 31.6 µM [rising, single point].

With `COc1cccc(C2c3c(oc4ccccc4c3=O)C(=O)N2CCCN(C)C)c1OC` (stereo unspecified) the AC50 [1] was 0.0708 µM [falling, full curve, poor fit].

For `C=CCNc1ccc(N2C(=O)C3CCC(C)CC3C2=O)cc1[N+](=O)[O-]` (stereo unspecified), the AC50 [2] was 35.5 µM [falling, single point].

With `CC(/C=N/NC(=O)CSc1nc2ccccc2n1C)=C\c1ccco1` the AC50 [1] was 15.8 µM [rising, single point].

With `CCOc1ccc2nc(SCC#N)c(C#N)cc2c1` the AC50 [2] was 0.0316 µM [falling, full curve, poor fit].

With `S=C(NCCC(c1ccccc1)c1ccccc1)Nc1cccc(Cl)c1` the AC50 [2] was 0.0316 µM [falling, single point] and the AC50 [1] was 15.8 µM [falling, single point].

With `Cc1nc2ccc(S(=O)(=O)NCC(=O)N3CCC(C)CC3)cc2s1` the AC50 [1] was 17.8 µM [rising, single point].

In the case of `Cn1c(-c2ccccc2)c[n+]2c1-c1ccccc1C2`, the AC50 [1] is reported as 7.08 µM [rising, full curve].

With `CC(=O)Nc1ccc(NC(=O)CN2C(=O)CCc3cc(S(=O)(=O)N4CCCCC4)ccc32)cc1` the AC50 [2] was 0.0316 µM [rising, full curve, poor fit].

For `N#CCCn1nc(-c2ccccc2)cc1Nc1ccccc1NC(=O)c1cccs1`, the AC50 [1] was 8.91 µM [rising, partial curve].

For `O=c1c(-c2ccc(F)cc2)nc2cnc(Oc3ccccc3)nc2n1Cc1cccs1`, the AC50 [2] was 17.8 µM [falling, partial curve, poor fit].

With `COCC1CCN(c2nc3nonc3nc2N2CCSCC2)C1` (stereo unspecified) the AC50 [2] was 0.0126 µM [falling, full curve, poor fit] and the AC50 [1] was 0.0141 µM [falling, full curve, poor fit].

For `O=C(Nc1ccc(F)cc1)Nc1nnc(SCC(=O)N2CCCCC2)s1`, the AC50 [1] was 39.8 µM [falling, partial curve, poor fit].

With `COc1ccccc1CNc1ccnc(-c2ccccc2OC)n1` the AC50 [2] was 3.16 µM [falling, partial curve, poor fit].

In the case of `CC1CN(Cc2ccccn2)CCC1=O` (stereo unspecified), the AC50 [1] is reported as 0.0447 µM [rising, full curve, poor fit].

In the case of `COc1ccc(/C=N/n2c(SC)nnc2-c2ccccc2)cc1C`, the AC50 [2] is reported as 35.5 µM [rising, single point] and the AC50 [1] is reported as 35.5 µM [rising, single point].

With `Cc1ccc(S(=O)(=O)N(C)Cc2ccc(C(=O)N/N=C3\CCCC(=O)C3)cc2)cc1` the AC50 [2] was 35.5 µM [rising, single point] and the AC50 [1] was 35.5 µM [rising, single point].

For `NC(=O)CC[C@@H]1NC(=O)[C@@H]2CCCN2C(=O)c2cc([N+](=O)[O-])cc(F)c2NCCC[C@@H](C(N)=O)NC1=O`, the AC50 [2] was 6.31 µM [falling, partial curve, poor fit].

For `Cc1cc(O)c2c(c1)C(=O)c1cccc(O)c1C2=O`, the AC50 [2] was 0.224 µM [falling, full curve, poor fit].

With `COc1ccc(CC(=O)OC(C)CN2CCOCC2)cc1` (stereo unspecified) the AC50 [2] was 20 µM [rising, single point].

In the case of `COc1ccc(N2CCN(C(c3cccc(OC)c3OC)c3nnnn3C3CCCC3)CC2)cc1` (stereo unspecified), the AC50 [1] is reported as 4.47 µM [rising, partial curve].

For `CC(=O)N1c2ccccc2CC1C(=O)N1CCN(c2cc(Cl)ccc2C)CC1` (stereo unspecified), the AC50 [2] was 35.5 µM [falling, single point].

With `COc1cccc(/C=C/c2nc3ccccc3c(=O)n2-c2ccc(C)c(C)c2)c1OC` the AC50 [2] was 35.5 µM [falling, partial curve, poor fit].

With `C/C(=N\NC(=S)Nc1ccc(C)cc1)c1cccc(N)c1` the AC50 [1] was 1.12 µM [falling, partial curve, poor fit].
